# Results deposited as PubChem BioAssay AID1508597 (Cure First, 2020)
# Screen: 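Genes whose silencing sensitises or protects ovarian cancer cells against rucaparib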 (primary screen)
# Cell system: human ovarian carcinoma lines grown from tumours: OCI-P5x (papillary serous) and OCI-C5x (clear cell)
# Reagents: siRNA pool against human genes, 1.25 pmol siRNA per well
# Time to read-out: 72 h or 96 h, depending on the cell culture
# Treatment: rucaparib 20 µM (about IC30) or vehicle, present until read-out
# Measurement: 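Luminescent ATP-based viability assay read 72 or 96 h after transfection, depending on culture, given as normalised percent viability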
# Reading the numbers: viability, normalised: higher = more viable cells remaining
# Hit rule: 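Active when normalised viability falls below 80 percent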
# Calls: active = viability under 80%; inactive = viability 80% or more
# The whole screen tested about 2,100 reagents; shown is a random part of them. 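Calls flag viability under 80% in either arm, not effects specific to rucaparib; the reference for percent is not stated.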 Reagent sequences are not shown. The record does not give: the 100% reference.
The first 3 records as a preview:
Gene,rucaparib or vehicle,cell line,technical replicate,"viability, normalised (%)",outcome
XRCC3,Rucaparib,OCI-C5x (clear cell),1,56.3,active
XRCC3,Rucaparib,OCI-C5x (clear cell),2,66.5,active
XRCC3,Rucaparib,OCI-C5x (clear cell),3,58.2,active

Main list, repeating the preview:
Gene,rucaparib or vehicle,cell line,technical replicate,"viability, normalised (%)",outcome
XRCC3,Rucaparib,OCI-C5x (clear cell),1,56.3,active
XRCC3,Rucaparib,OCI-C5x (clear cell),2,66.5,active
XRCC3,Rucaparib,OCI-C5x (clear cell),3,58.2,active
XRCC3,Rucaparib,OCI-P5x (serous),1,92,inactive
XRCC3,Rucaparib,OCI-P5x (serous),2,64.6,active
XRCC3,Rucaparib,OCI-P5x (serous),3,79.7,active
XRCC3,Vehicle,OCI-C5x (clear cell),1,56,active
XRCC3,Vehicle,OCI-C5x (clear cell),2,67.8,active
XRCC3,Vehicle,OCI-C5x (clear cell),3,55.8,active
XRCC3,Vehicle,OCI-P5x (serous),1,84.8,inactive
XRCC3,Vehicle,OCI-P5x (serous),2,105,inactive
XRCC3,Vehicle,OCI-P5x (serous),3,82.8,inactive
PALS1,Rucaparib,OCI-C5x (clear cell),1,56.8,active
PALS1,Rucaparib,OCI-C5x (clear cell),2,56.4,active
PALS1,Rucaparib,OCI-C5x (clear cell),3,74.2,active
PALS1,Rucaparib,OCI-P5x (serous),1,122,inactive
PALS1,Rucaparib,OCI-P5x (serous),2,117,inactive
PALS1,Rucaparib,OCI-P5x (serous),3,72.3,active
PALS1,Vehicle,OCI-C5x (clear cell),1,70.1,active
PALS1,Vehicle,OCI-C5x (clear cell),2,56.2,active
PALS1,Vehicle,OCI-C5x (clear cell),3,44.9,active
PALS1,Vehicle,OCI-P5x (serous),1,102,inactive
PALS1,Vehicle,OCI-P5x (serous),2,98.1,inactive
PALS1,Vehicle,OCI-P5x (serous),3,78.1,active
